This passage reports binding results from PMC8867111.

In assay [1] the target is ZBP1, endogenous in PBMCs (human (endogenous in PBMCs)). Nature of the assay: co-IP.
For assay [2], the target named is His-ZBP1. Nature of the assay: pull-down; purified GST-TRIM34, His-RIPK3 and His-ZBP1 mixed (3.2 nM) in various combinations, immunoprecipitated with the indicated antibody, Western blot; both purified.
Assay [3] addresses ZBP1 (K43A). Nature of the assay: co-IP; 293T cells transfected for 48 h; IP-lysis buffer (50 mM Tris-HCl, 150 mM NaCl, 1% Triton X-100, 1 mM EDTA, 10% glycerol, pH 7.4); indicated antibodies, protein G agarose, 4 C; wash with 300 mM NaCl; immunoblot.

These are yes or no findings as the source states them, for the method shown. Binding calls can cover weak binding; strength is not graded here. For part of these data: Where a sequence is shown, tags or fusion partners need not be part of it. For part of these data: In cells and extracts the contact can be indirect.

B1: TRIM34, endogenous in PBMCs (protein, UniProt Q9BYJ4 1-488)
chain: MASKILLNVQEEVTCPICLELLTEPLSLDCGHSLCRACITVSNKEAVTSMGGKSSCPVCGISYSFEHLQANQHLANIVERLKEVKLSPDNGKKRDLCDHHGEKLLLFCKEDRKVICWLCERSQEHRGHHTVLTEEVFKECQEKLQAVLKRLKKEEEEAEKLEADIREEKTSWKYQVQTERQRIQTEFDQLRSILNNEEQRELQRLEEEEKKTLDKFAEAEDELVQQKQLVRELISDVECRSQWSTMELLQDMSGIMKWSEIWRLKKPKMVSKKLKTVFHAPDLSRMLQMFRELTAVRCYWVDVTLNSVNLNLNLVLSEDQRQVISVPIWPFQCYNYGVLGSQYFSSGKHYWEVDVSKKTAWILGVYCRTYSRHMKYVVRRCANRQNLYTKYRPLFGYWVIGLQNKCKYGVFEESLSSDPEVLTLSMAVPPCRVGVFLDYEAGIVSFFNVTSHGSLIYKFSKCCFSQPVYPYFNPWNCPAPMTLCPPSS
Consider B1, for which, in assay [1], the binding result was “binds”.

B2: GST-TRIM34 (protein, UniProt Q9BYJ4 1-488)
chain: MASKILLNVQEEVTCPICLELLTEPLSLDCGHSLCRACITVSNKEAVTSMGGKSSCPVCGISYSFEHLQANQHLANIVERLKEVKLSPDNGKKRDLCDHHGEKLLLFCKEDRKVICWLCERSQEHRGHHTVLTEEVFKECQEKLQAVLKRLKKEEEEAEKLEADIREEKTSWKYQVQTERQRIQTEFDQLRSILNNEEQRELQRLEEEEKKTLDKFAEAEDELVQQKQLVRELISDVECRSQWSTMELLQDMSGIMKWSEIWRLKKPKMVSKKLKTVFHAPDLSRMLQMFRELTAVRCYWVDVTLNSVNLNLNLVLSEDQRQVISVPIWPFQCYNYGVLGSQYFSSGKHYWEVDVSKKTAWILGVYCRTYSRHMKYVVRRCANRQNLYTKYRPLFGYWVIGLQNKCKYGVFEESLSSDPEVLTLSMAVPPCRVGVFLDYEAGIVSFFNVTSHGSLIYKFSKCCFSQPVYPYFNPWNCPAPMTLCPPSS
With B2, in assay [2], the binding result is listed as “binds”.

B3: Flag-tagged TRIM34 (protein, UniProt Q9BYJ4 1-488)
chain: MASKILLNVQEEVTCPICLELLTEPLSLDCGHSLCRACITVSNKEAVTSMGGKSSCPVCGISYSFEHLQANQHLANIVERLKEVKLSPDNGKKRDLCDHHGEKLLLFCKEDRKVICWLCERSQEHRGHHTVLTEEVFKECQEKLQAVLKRLKKEEEEAEKLEADIREEKTSWKYQVQTERQRIQTEFDQLRSILNNEEQRELQRLEEEEKKTLDKFAEAEDELVQQKQLVRELISDVECRSQWSTMELLQDMSGIMKWSEIWRLKKPKMVSKKLKTVFHAPDLSRMLQMFRELTAVRCYWVDVTLNSVNLNLNLVLSEDQRQVISVPIWPFQCYNYGVLGSQYFSSGKHYWEVDVSKKTAWILGVYCRTYSRHMKYVVRRCANRQNLYTKYRPLFGYWVIGLQNKCKYGVFEESLSSDPEVLTLSMAVPPCRVGVFLDYEAGIVSFFNVTSHGSLIYKFSKCCFSQPVYPYFNPWNCPAPMTLCPPSS
Consider B3, for which, in assay [3], the binding result is listed as “binds”.
